Test results published in article PMC10900696.
These are yes or no findings as the source states them, for the method shown. Binding seen in cells or lysates may run through a third protein. Some results given as binding are weak or reduced against the parent protein; the word gives no strength.

Assays:
[1] = molecular target: HA-PP2Ac (wild type catalytic subunit of protein phosphatase 2A) (human (cDNA from HeLa mRNA)) (UniProt P67775); experiment: co-IP; HA-PP2Ac (wild type or mutant) precipitated with anti-HA Ab on Protein A/G beads from extracts of transfected, serum-starved αT3-1 or PC3 cells; cells untreated or stimulated with TPA (250 nM), GnRH-a or PGF2α, with or without PKC inhibitor GFx (3 µM, 20 min); partners detected by Western blotting
[2] = molecular target: HA-PP2Ac (wild type catalytic subunit of protein phosphatase 2A) (human (cDNA from HeLa mRNA)) (UniProt P67775); experiment: proximity ligation; Duolink PLA on fixed, permeabilised αT3-1 or PC3 cells transfected with HA-PP2Ac or its mutants; anti-HA together with Ab to the partner; cells untreated or stimulated with TPA (250 nM)
[3] = molecular target: HA-PP2Ac (wild type catalytic subunit of protein phosphatase 2A) (human (cDNA from HeLa mRNA)) (UniProt P67775); experiment: co-IP; HA-PP2Ac (wild type or mutant) precipitated with anti-HA Ab on Protein A/G beads from extracts of transfected, serum-starved αT3-1 or PC3 cells; cells untreated or stimulated with TPA (250 nM), GnRH-a or PGF2α, with or without PKC inhibitor GFx (3 µM, 20 min); partners detected by Western blotting; remark: listed apart in the source
[4] = molecular target: S24E-PP2Ac (phosphomimetic mutant of HA-PP2Ac) (human (cDNA from HeLa mRNA)) (UniProt P67775); experiment: proximity ligation; Duolink PLA on fixed, permeabilised αT3-1 or PC3 cells transfected with HA-PP2Ac or its mutants; anti-HA together with Ab to the partner; cells untreated or stimulated with TPA (250 nM)
[5] = molecular target: S24A-PP2Ac (unphosphorylatable mutant of HA-PP2Ac) (human (cDNA from HeLa mRNA)) (UniProt P67775); experiment: as above
[6] = molecular target: HA-PP2Ac (wild type catalytic subunit of protein phosphatase 2A) (human (cDNA from HeLa mRNA)) (UniProt P67775); experiment: as above; remark: listed apart in the source

Row | Molecule | binding [1] | binding [2] | binding [3] | binding [4] | binding [5] | binding [6]
1 | PKCα, endogenous in PC3 cells (from UniProt P17252 1-672) (enzyme) | binds | binds | – | – | – | –
2 | PKCα, endogenous in αT3-1 cells (from UniProt P20444 1-672) (enzyme) | binds | binds | – | – | – | –

Now from value to molecule:

Row | binding [1] | binding [2] | binding [3] | binding [4] | binding [5] | binding [6] | Molecule
3 | – | – | binds | binds | binds | binds | IGBP1, endogenous in αT3-1 cells (protein, UniProt Q61249 1-340) MAASEDELLLPRLPELFETSKKLLEDVEVATEPTGSRTIQDKVSKGLELLEKAAGMLSQLDLFSRNEDLEEIASTDLKYLMVPALQGALTMKQVNPSKRLDHLQRAREHFVHFLTQCHCYHVAEFQLPQTKTNSAENNTASSSMAYPNLVAMASQRQAKIERYKQKKEVEHRLSALKSAVESGQADDERVREYHLLHLRRWIAVSLEELESIDQEIKILKEKDSPREETACHSSLPEKPPMKPFILTRNKAQAKVFGTGYPSLATMTVSDWYEQHQKYGVLPDRGIAKPASADFQRAAQQQEDQEQKDEESEEKALHRMREWDDWKDTHPRGYGNRQNMG
4 | – | – | – | binds | binds | – | IGBP1, endogenous in PC3 cells (protein, UniProt P78318 1-339) MAAEDELQLPRLPELFETGRQLLDEVEVATEPAGSRIVQEKVFKGLDLLEKAAEMLSQLDLFSRNEDLEEIASTDLKYLLVPAFQGALTMKQVNPSKRLDHLQRAREHFINYLTQCHCYHVAEFELPKTMNNSAENHTANSSMAYPSLVAMASQRQAKIQRYKQKKELEHRLSAMKSAVESGQADDERVREYYLLHLQRWIDISLEEIESIDQEIKILRERDSSREASTSNSSRQERPPVKPFILTRNMAQAKVFGAGYPSLPTMTVSDWYEQHRKYGALPDQGIAKAAPEEFRKAAQQQEEQEEKEEEDDEQTLHRAREWDDWKDTHPRGYGNRQNMG
